The values are deposited in ChEMBL (CHEMBL3988442, “University of Dundee, Small-Polar-MMV Screening Library” (2021)).

Protein sequences, listed by entry. Tags and fused reporters are not part of them.
UniProt E9BF75, entry or part of it: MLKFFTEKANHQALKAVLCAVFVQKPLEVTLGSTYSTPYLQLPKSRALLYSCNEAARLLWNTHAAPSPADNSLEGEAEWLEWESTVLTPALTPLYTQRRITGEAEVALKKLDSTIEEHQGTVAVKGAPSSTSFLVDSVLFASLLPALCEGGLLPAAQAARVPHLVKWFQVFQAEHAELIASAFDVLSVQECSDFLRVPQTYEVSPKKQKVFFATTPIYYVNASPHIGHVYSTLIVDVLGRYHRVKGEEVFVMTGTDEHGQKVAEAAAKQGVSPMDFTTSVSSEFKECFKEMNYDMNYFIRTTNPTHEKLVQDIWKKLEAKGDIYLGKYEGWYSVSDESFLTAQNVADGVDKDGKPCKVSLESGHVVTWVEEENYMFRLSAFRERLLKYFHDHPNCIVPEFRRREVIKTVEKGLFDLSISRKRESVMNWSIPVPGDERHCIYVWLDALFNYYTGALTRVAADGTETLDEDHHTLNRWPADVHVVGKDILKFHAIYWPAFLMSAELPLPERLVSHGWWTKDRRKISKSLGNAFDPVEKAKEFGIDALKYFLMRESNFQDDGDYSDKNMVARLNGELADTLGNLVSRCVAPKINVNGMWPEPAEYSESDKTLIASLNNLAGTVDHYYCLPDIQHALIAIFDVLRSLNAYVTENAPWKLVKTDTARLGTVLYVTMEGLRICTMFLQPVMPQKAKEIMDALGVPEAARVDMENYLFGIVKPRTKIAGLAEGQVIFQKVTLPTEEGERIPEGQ

Mtb heat-shock: 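Assay on Mycobacterium tuberculosis, filed only as a heat shock assay from Cornell; the read-out is not stated. The concentration is filed as 10 mM, unlikely as a test dose, so the dose is not known. The record gives no direction; compounds that gave an IC50 in retests scored well above the rest, so higher reads as stronger inhibition. Of about 69,000 compounds tested this way, about 930 (1.4%) reached 50% or more in at least one test.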
LdMetRS: 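Methionyl-tRNA synthetase (putative), Leishmania donovani (UniProt E9BF75). Primary screen of methionyl-tRNA synthetase; the read-out is not stated. The test concentration is not given. The values are filed as inhibition. Of about 68,000 compounds tested this way, about 24 (0.035%) reached 50% or more in at least one test.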
Mtb growth Cornell: 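Whole-cell assay for inhibitors of Mycobacterium tuberculosis growth, labelled Cornell in the record; the read-out is not stated. The concentration is filed as 10 mM, unlikely as a test dose, so the dose is not known. The record gives no direction; compounds strong in two other growth screens of this library score well above the rest, so higher reads as stronger inhibition. Size under these conditions: about 53,000 compounds, about 900 of them at 50% or above in at least one test.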

All values are in %. The controls that fix the scale are not given in the record; negative values are as filed. Compounds were drawn at random from those tested, without regard to their results. A dash means the value is not listed here; it may have been measured.

| Compound | Mtb heat-shock | LdMetRS | Mtb growth Cornell |
|---|---|---|---|
| `O=C(O)C(F)(F)F.[H][C@@]12CN(Cc3cccc(C)c3)C[C@]1([H])OCCN2c1ccnc(N(C)C)n1` | -14.17 | - | 24.83 |
| `Cc1ccc2c(c1)SCC(=O)N2Cc1noc(C2CC2)n1` | -22.55 | -2.872 | - |
| `Cc1cccc(C(=O)N2CCC(Cc3cnc4[nH]ccc4c3)CC2)n1` | -2.431 | 12.94 | - |
| `CC(C)S(=O)(=O)N1CCC(c2cc3n(n2)[C@@H](C(F)(F)F)C[C@@H](C)N3)C1` (stereo not given in full) | 1.953 | 2.439 | - |
| `O=C(NC1CCCC1)C1Cc2nc(-c3ccsc3)sc2N1CC1CC1` (stereo not given) | -2.963 | 1.918 | 19.56 |
| `Cn1cnnc1CNC(=O)CCCOc1ccccc1Cl` | -4.987 | 3.727 | - |
| `CC(C)n1c(C(=O)N2CCCC2)nc2c1CCN(C)C2.O=C(O)C(F)(F)F` | -25.37 | - | 25.44 |
| `Cc1cc(CNCC2Cn3nnc(C)c3CO2)oc1C.O=C(O)C(F)(F)F` (stereo not given) | -48.25 | - | 11.55 |
| `COc1c(F)cccc1C(=O)NC(C)c1cnn(C)c1` (stereo not given) | 23.88 | 12.32 | 7.023 |
| `CS(=O)(=O)N1C[C@@H]2CCN(C(=O)c3ccco3)[C@@H]2C1` | - | 13.87 | - |
| `[H][C@]12CC[C@]([H])(CN(S(C)(=O)=O)C1)N(Cc1ccc3nsnc3c1)C2` | -13.19 | - | 4.015 |
| `Cn1ccnc1-c1cccc(NC(=O)NCCCN2CCOCC2)c1` | -8.468 | 14.61 | 7.679 |
| `Cc1nc(-c2ccsc2)ccc1C(=O)N(C)CC(F)(F)F` | -19.13 | 16.15 | 18.14 |
| `Cc1ccc(S(=O)(=O)N2CCN(CCC#N)CC2)s1` | 4.609 | 15.76 | -11.11 |
| `Cl.O=C1C(NCc2ccc3c(c2)CCO3)CCN1Cc1ccccc1` (stereo not given) | -6.908 | - | 35.52 |
| `Cc1n[nH]c(C)c1C1COCCN1C(=O)c1cc(F)ccc1F` (stereo not given) | 0.6602 | 14.21 | - |
| `c1cc(NCc2ccncc2)nc(C2CCCN2)c1` (stereo not given) | - | 19.81 | - |
| `Cc1nc(CNC(=O)CCCc2cccs2)no1` | 12.45 | 10.07 | 35.23 |
| `CN(C)C(=O)c1cccc(NC(=O)N2CCCC(C(F)(F)F)C2)c1` (stereo not given) | 0.4863 | 12.53 | - |
| `[H][C@]12CC[C@]([H])(CN(S(=O)(=O)N(C)C)C1)N(Cc1cccc(C#N)c1)C2` | 5.532 | - | 15.1 |
| `CC(C)N1c2sc(-c3ccccc3)nc2CC1C(=O)NC1CCCC1` (stereo not given) | -4.503 | -7.769 | 16.69 |
| `CNC(=O)Cn1cc(Nc2cccc(F)c2C#N)cn1` | 0.966 | 11.38 | 3.219 |
| `CC(C(=O)N1CCOCC1)N1CCN(Cc2nccn2C)CC1` (stereo not given) | -28.2 | 5.307 | -9.72 |
| `COCCN1CCCC(C)(c2cc(O)[nH]n2)C1` (stereo not given) | -22.25 | 13.02 | 21.58 |
| `CCC(c1ccc(F)cc1)S(=O)(=O)CCO` (stereo not given) | -19.94 | 1.977 | -19.01 |
| `COc1ccc(C(C)NCc2ccc(OC)c(OC)c2OC)cc1F.Cl` (stereo not given) | -27.23 | - | -57.5 |
| `O=C(O)C(F)(F)F.[H][C@@]12COC[C@]1(COc1cccnc1)CN(C(=O)Cc1ccccc1F)C2` | -4.707 | - | -5.554 |
| `Cc1cccc(C(C(=O)N2CC(Oc3ccccc3F)C2)N(C)C)c1` (stereo not given) | -28.13 | 14.65 | - |
| `[H][C@@]12CS(=O)(=O)C[C@]1([H])N(Cc1ccncc1)CCN2CCOC` | 4.907 | - | 30.7 |
| `O=C(NCCC1COc2ccccc2O1)c1ccc(N2CC(O)C2)nc1` (stereo not given) | 8.001 | 12.28 | -14.99 |
| `Cc1ccn(-c2ccc(N3CCCN(Cc4ccccc4)CC3)nn2)n1` | -6.094 | 13.32 | -5.18 |
| `O=C(NC1CC1)NC(c1cc(F)ccc1F)C1CC1` (stereo not given) | 8.554 | 14.54 | 12.52 |
| `CC(C)(C)OCC1CN(CC2CC2)S(=O)(=O)c2cnccc2O1` (stereo not given) | -16.19 | 9.459 | 2.174 |
| `CCOCc1ncn2c1CN(S(=O)(=O)c1ccc(OC)cc1)CC2` | -5.353 | 6.452 | 1.671 |
| `CN(C)C(=O)C1CN(Cc2cscn2)CCN(S(C)(=O)=O)C1` (stereo not given) | -3.28 | 16.1 | 10.13 |
| `CCc1nnc(CN2CCCC2Cn2cc(C)cn2)o1` (stereo not given) | -21.55 | 3.889 | -56.06 |
| `COCCNc1ccc(CNCc2cnc3nc(C)cc(C)n23)cc1` | -19.06 | 2.542 | -11.32 |